Measured values reported in paper doi:10.1101/2023.04.01.535202, “Three small partner proteins facilitate the type VII-dependent secretion export of an antibacterial nuclease” (bioRxiv, 2023).
No constants are given. Whether binding was seen depends on the method and setting. In cells and extracts the contact can be indirect. Binding calls can cover weak binding; strength is not graded here.

Sequences of proteins named here, by UniProt entry; tags and fusion partners are left off. Residues count along the entry.
UniProt Q2G179, residues 1-477: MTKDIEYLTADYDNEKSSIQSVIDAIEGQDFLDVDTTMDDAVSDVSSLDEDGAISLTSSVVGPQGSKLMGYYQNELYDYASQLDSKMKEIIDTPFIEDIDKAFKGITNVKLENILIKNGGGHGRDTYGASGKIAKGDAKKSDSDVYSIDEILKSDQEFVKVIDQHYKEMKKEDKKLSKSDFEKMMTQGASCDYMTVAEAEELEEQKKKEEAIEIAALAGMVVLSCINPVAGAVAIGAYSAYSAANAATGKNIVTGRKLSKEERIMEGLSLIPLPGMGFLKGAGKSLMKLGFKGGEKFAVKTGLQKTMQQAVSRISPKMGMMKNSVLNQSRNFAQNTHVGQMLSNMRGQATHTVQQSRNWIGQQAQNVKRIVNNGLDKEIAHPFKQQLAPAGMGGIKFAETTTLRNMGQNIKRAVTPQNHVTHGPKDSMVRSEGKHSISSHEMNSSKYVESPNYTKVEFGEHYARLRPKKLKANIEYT

B1: EsaG (protein, UniProt Q2G178 1-163)
chain: MTFEEKLSKIYNEIANEISSMIPVEWEKVYTMAYIDDGGGEVFFNYTKPGSDDLNYYTNIPKEYNISVQVFDDLWMDLYDLFEELRDLFKEEDLEPWTSCEFDFTREGELKVSFDYIDWINSEFGQIGRQNYYKYRKFGILPETEYEINKVKEIEQYIKELEE
B2: EsxB (protein, UniProt Q2G182 1-104)
chain: MGGYKGIKADGGKVDQAKQLAAKTAKDIEACQKQTQQLAEYIEGSDWEGQFANKVKDVLLIMAKFQEELVQPMADHQKAIDNLSQNLAKYDTLSIKQGLDRVNP
B3: EsaE (protein, UniProt Q2G181 1-224)
chain: MKDVKRIDYFSYEELTILGGSKLPLVNFELFDPSNFEEAKAALIEKELVTENDKLTDAGFKVATLVREYISAIVNIRINDMYFAPFSYEKDEYILLSRFKNNGFQIRIINKDIAWWSIVQSYPLLMRQEKSNDWDFKQIDDETLENLNNESIDTIGRVLEIEIYNHQGDPQQSLYNIYEQNDLLFIRYPLKDKVLNVHIGVINTFIRELFGFDTDENHINKAEE

Assays:
[1] = molecular target: EsaD_(1-477)-his (Staphylococcus aureus) (UniProt Q2G179); experiment: pull-down + SEC
[2] = molecular target: EsxD with a C-terminal twin-strep tag (Staphylococcus aureus) (UniProt Q2G180); experiment: pull-down + SEC; six genes co-expressed in E. coli M15 pREP4; complexes purified sequentially via the his-tag on EsaD^H528A (nickel) and the twin-strep tag on EsxD (strep-tactin), then SEC in 50 mM HEPES pH 7.5, 150 mM NaCl; components identified by immunoblot or mass spectrometry

Row | Molecule | binding [1] | binding [2]
1 | EsxD (co-expressed with truncated EsaD) (from UniProt Q2G180) | binds | 
2 | EsxC (from UniProt Q2G183) | binds | binds
3 | B1 |  | binds
4 | B2 |  | binds
5 | B3 |  | binds
